Values quoted from earlier work as cited in patent publication US20250066504A1, “USE OF OREGOVOMAB AND PARP INHIBITORS FOR TREATMENT OF OVARIAN CANCER” (CANARIABIO INC., priority 2022, published 2025).
Read-outs that look alike come from different tables or passages of the source.

Key:
[1] = human, in vivo
[2] = after 6 weeks

In the case of Oregovomab, the “antibody response to the oregovomab variable domain portion” value [1] is listed as “induced”, the “patients who generated an antibody response to the immunoglobulin constant region” value [1] is listed as “More than 90%” and the “patients with early humoral response” value ([2]; alternate delayed schedule of chemoimmunotherapy) is listed as 35%. For the same substance, the “patients with early humoral response” value ([2]; preferred (simultaneous) schedule of chemo-immunotherapy, 2 mg per infusion) was 75%.
